PubChem BioAssay AID1259296 – Sanger Institute | 2017
This is an unselected part of 160 reagents. 45 of all reagents (28%) were called active. 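Calls are per single siRNA duplex in CAR1 cells only; how the synergy score is calculated is not stated.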 The numbers tell different reagents against one gene apart. No viability above 1 is reported: the scale is capped. The record does not give: the amount of reagent, the time to read-out.

Purpose: 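Kinase genes whose silencing works synergistically with colorectal cancer drugs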 (follow-up of hits)
System: CAR1 human colorectal cancer cells
Knock-down reagent: single siRNA against human genes
Challenge: anchor drugs BYL719 at 1 µM, cetuximab at 5 µg/ml or trametinib at 10 nM, or DMSO vehicle, added a day after transfection
Measured: 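Viability as a fraction of control pool 2 (non-targeting), replicate mean; for every anchor drug, a synergy score comparing combined effect with drug and siRNA individually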
Scale: synergy with BYL719 and synergy with cetuximab and synergy with trametinib: higher = stronger synergy between knock-down and drug; viability, siRNA plus trametinib and viability, siRNA alone (DMSO): higher = more viable cells
Call rule: 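Active when synergy exceeds 0.10 with BYL719, cetuximab or trametinib, any one sufficing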

gene	reagent no.	synergy with BYL719	synergy with cetuximab	synergy with trametinib	viability, siRNA plus trametinib (fraction of control)	viability, siRNA alone (DMSO) (fraction of control)	Call
COASY (Coenzyme A synthase)	1	0.133	0.152	0.087	0.89	0.977	active
COASY (Coenzyme A synthase)	2	0.21	0.111	0.0392	0.961	1	active
COASY (Coenzyme A synthase)	3	0.0546	-0.00759	0.0684	0.478	0.546	inactive
COASY (Coenzyme A synthase)	4	-0.0183	0.000164	0.0124	0.671	0.684	inactive

Records above called active, once more:
gene	reagent no.	synergy with BYL719	synergy with cetuximab	synergy with trametinib	viability, siRNA plus trametinib (fraction of control)	viability, siRNA alone (DMSO) (fraction of control)	Call
COASY (Coenzyme A synthase)	1	0.133	0.152	0.087	0.89	0.977	active
COASY (Coenzyme A synthase)	2	0.21	0.111	0.0392	0.961	1	active

Continued.
gene	reagent no.	synergy with BYL719	synergy with cetuximab	synergy with trametinib	viability, siRNA plus trametinib (fraction of control)	viability, siRNA alone (DMSO) (fraction of control)	Call
CSNK2A2 (casein kinase 2 alpha 2)	1	-0.0907	-0.0722	0.0331	0.937	0.97	inactive
CSNK2A2 (casein kinase 2 alpha 2)	2	0.0581	-0.0279	0.112	0.457	0.569	active
CSNK2A2 (casein kinase 2 alpha 2)	3	0.0287	-0.0218	-0.0156	0.602	0.586	inactive
CSNK2A2 (casein kinase 2 alpha 2)	4	0.019	0.00284	0.137	0.329	0.467	active
RPS6KA4 (ribosomal protein S6 kinase A4)	1	-0.0744	-0.0708	-0.0335	0.866	0.832	inactive
RPS6KA4 (ribosomal protein S6 kinase A4)	2	0.0452	0.0456	0.0133	0.886	0.899	inactive
RPS6KA4 (ribosomal protein S6 kinase A4)	3	0.0395	-0.0525	0.0334	0.766	0.799	inactive
RPS6KA4 (ribosomal protein S6 kinase A4)	4	0.0778	-0.0209	0.0665	0.707	0.774	inactive
